Values quoted from earlier work as cited in patent US12533389B2, “Glycopeptide antibiotic combination therapy” (The Trustees of Princeton University, priority 2021, dated 2026).
Some entries share one result that the patent states for a list of compounds.

System: C. difficile infection
Conditions: treatment of C. difficile infection; cited from earlier work

In the case of `Cc1ncc([N+](=O)[O-])n1CCO` [metronidazole], the disease recurrence is listed as 20-30 % of cases.
